Test results as given in the supplement of paper PMC12889115.
Some of the results follow. Values are raw readings; no control value is given beside them.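 In the initial screen, polymyxin B was used at a concentration that permeabilizes Salmonella's outer membrane but not its inner membrane. Maximum growth was set by DMSO wells with or without polymyxin B. Since plates varied, data were ranked per plate, and compounds giving the lowest OD600 advanced as hits.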

Test system: Salmonella enterica serovar Typhimurium SL1344
Assay: bacterial growth OD600 after 18 h with compound and polymyxin B; higher = more bacterial growth (less inhibition)
Conditions: 50 µM, Mueller-Hinton broth

Row | Structure (SMILES) | bacterial growth OD600 (polymyxin B 0.75 µg/mL) | bacterial growth OD600 (polymyxin B 1 µg/mL)
1 | COCCN1C(=O)CC(CC(=O)N2CCCC(C(=O)N3CCOCC3)C2)(c2ccccc2F)C1=O (stereo unspecified) | 0.834 | –
2 | COc1ccc(NC2CCCN(C(=O)c3cn(C)c4ccccc34)C2)cc1 (stereo unspecified) | – | 0.778
3 | C=C(C)CN(CC)C(=O)C1CCCN(C2CCN(C(=O)C3CC3)CC2)C1 (stereo unspecified) | 0.764 | –
4 | Cc1cc(C)n(Cc2cc(C(=O)N(C)C(C)c3nccs3)n[nH]2)n1 (stereo unspecified) | – | 0.971
5 | O=C(CCc1cccnc1)N1CCCC(CCc2ccc(F)c(F)c2)C1 (stereo unspecified) | 0.351 | –
6 | Cc1ccc(CN2CCCC(CCC(=O)Nc3ccccc3F)C2)o1 (stereo unspecified) | – | 0.927
7 | CCOC(=O)C1(CCc2ccccc2)CCN(C(=O)c2cccc(C)n2)CC1 | – | 0.959
8 | CC(Cc1cc(C(=O)NCCc2ccccc2)on1)c1ccccc1 (stereo unspecified) | 0.6 | –
9 | CN1C(=O)CC(CC(=O)N2CCCC2c2nccs2)(c2ccc(-c3ccccc3)cc2)C1=O (stereo unspecified) | 0.005 | –
10 | CCOC(=O)C1(Cc2cccc(Cl)c2)CCCN(C(=O)c2cccc(OC)c2OC)C1 (stereo unspecified) | – | 0.323
11 | O=C(CCN1CCCCCC1=O)NC1CCCN(CCc2ccccc2)C1 (stereo unspecified) | 0.789 | –
12 | Cc1cnc(C)c(N2CCN(C(=O)c3cn(C4CCCCC4)nn3)CC2)n1 | – | 0.789
13 | Cc1cccc(N2CCN(Cc3c[nH]nc3-c3ccc(F)cc3F)CC2)n1 | – | 0.896
14 | O=C(C1CCOC1)N1CCc2[nH]nc(-c3ccccc3)c2C1 (stereo unspecified) | 0.842 | –
15 | CCCCNC1CCN(c2ccc(C(=O)NC(C)c3ccccc3)cc2)CC1 (stereo unspecified) | 0.877 | –
16 | O=C(c1c(F)ccc(F)c1F)N1CCCC(Nc2cccc(F)c2)C1 (stereo unspecified) | 0.748 | –

Looked up above:
Under bacterial growth OD600 (polymyxin B 0.75 µg/mL), `CCCCNC1CCN(c2ccc(C(=O)NC(C)c3ccccc3)cc2)CC1` (stereo unspecified) shows 0.877
Under bacterial growth OD600 (polymyxin B 0.75 µg/mL), `COCCN1C(=O)CC(CC(=O)N2CCCC(C(=O)N3CCOCC3)C2)(c2ccccc2F)C1=O` (stereo unspecified) shows 0.834

Additional entries follow:

Row | Structure (SMILES) | bacterial growth OD600 (polymyxin B 0.75 µg/mL) | bacterial growth OD600 (polymyxin B 1 µg/mL)
17 | CCOC(=O)C1(CCc2ccccc2)CCN(C(=O)CCc2c(C)noc2C)CC1 | – | 0.027
18 | Cc1ccc(-c2ccc(C(=O)N3CCC4(CC3)CC4C(=O)N3CCN(c4ccccn4)CC3)cc2)cc1 (stereo unspecified) | 0.011 | –
19 | COc1ccc(-c2ccccc2NC(=O)C2CCCN2S(C)(=O)=O)cc1 (stereo unspecified) | – | 0.957
20 | CCC(CC)N1CCC(N2CCC(C(=O)NCc3cccnc3)CC2)CC1 | – | 1.03
21 | Cc1ccc(NC2CCCN(C(=O)c3ccccc3)C2)cc1C (stereo unspecified) | – | 0.852
22 | CN(Cc1nc(-c2ccccc2)no1)CC1Cc2ccccc2O1 (stereo unspecified) | – | 1.08
23 | CCc1ocnc1C(=O)N1CCC(C2CCN(CCc3ccccc3)C2)CC1 (stereo unspecified) | 0.007 | –
24 | CCC1CN(CCC(=O)N2CCN(Cc3csc(C)n3)CC2)Cc2cc(OC)ccc2O1 (stereo unspecified) | 0.803 | –
25 | COc1cccc(C(=O)N2CCOc3c(cc(-c4ccccc4C)cc3OC3CCOC3)C2)c1 (stereo unspecified) | 0.929 | –
26 | CC(C)c1nccn1CCCNC(=O)c1ccc(N2CCCC2)nc1 | – | 0.88
27 | CCNC(=O)N1CCCC(CCc2cccc(F)c2)C1 (stereo unspecified) | 0.013 | –
28 | O=C1CC(NS(=O)(=O)N2CCCCC2)CN1CCc1ccccc1 (stereo unspecified) | – | 0.932
29 | COCCC(=O)N1CCC(C(=O)Nc2cccc(-c3nnc(C)s3)c2)CC1 | – | 0.969
30 | COCc1ccc(CN2CCC(CO)(Cc3cccc(OC)c3)CC2)o1 | 0.835 | –
31 | Cc1[nH]c2c(C(=O)N3CCOc4ccc(CN5CCN(c6ccccn6)CC5)cc4C3)cccc2c1C | 0.498 | –
